The values are deposited in ChEMBL (CHEMBL3988442, “University of Dundee, Small-Polar-MMV Screening Library” (2021)).

Chains of the proteins cited; added tags and fusions are not shown. Residues count along the entry.
UniProt P9WFT3, whole entry: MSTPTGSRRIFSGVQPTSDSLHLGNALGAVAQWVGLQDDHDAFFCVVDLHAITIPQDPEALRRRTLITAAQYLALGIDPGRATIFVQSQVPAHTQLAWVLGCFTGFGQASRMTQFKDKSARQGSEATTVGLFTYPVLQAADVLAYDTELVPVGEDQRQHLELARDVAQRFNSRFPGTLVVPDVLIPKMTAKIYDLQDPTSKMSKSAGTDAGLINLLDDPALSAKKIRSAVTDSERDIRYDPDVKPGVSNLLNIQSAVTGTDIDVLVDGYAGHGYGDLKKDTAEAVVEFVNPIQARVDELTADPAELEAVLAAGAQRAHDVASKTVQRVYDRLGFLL
UniProt I6X8D2, whole entry: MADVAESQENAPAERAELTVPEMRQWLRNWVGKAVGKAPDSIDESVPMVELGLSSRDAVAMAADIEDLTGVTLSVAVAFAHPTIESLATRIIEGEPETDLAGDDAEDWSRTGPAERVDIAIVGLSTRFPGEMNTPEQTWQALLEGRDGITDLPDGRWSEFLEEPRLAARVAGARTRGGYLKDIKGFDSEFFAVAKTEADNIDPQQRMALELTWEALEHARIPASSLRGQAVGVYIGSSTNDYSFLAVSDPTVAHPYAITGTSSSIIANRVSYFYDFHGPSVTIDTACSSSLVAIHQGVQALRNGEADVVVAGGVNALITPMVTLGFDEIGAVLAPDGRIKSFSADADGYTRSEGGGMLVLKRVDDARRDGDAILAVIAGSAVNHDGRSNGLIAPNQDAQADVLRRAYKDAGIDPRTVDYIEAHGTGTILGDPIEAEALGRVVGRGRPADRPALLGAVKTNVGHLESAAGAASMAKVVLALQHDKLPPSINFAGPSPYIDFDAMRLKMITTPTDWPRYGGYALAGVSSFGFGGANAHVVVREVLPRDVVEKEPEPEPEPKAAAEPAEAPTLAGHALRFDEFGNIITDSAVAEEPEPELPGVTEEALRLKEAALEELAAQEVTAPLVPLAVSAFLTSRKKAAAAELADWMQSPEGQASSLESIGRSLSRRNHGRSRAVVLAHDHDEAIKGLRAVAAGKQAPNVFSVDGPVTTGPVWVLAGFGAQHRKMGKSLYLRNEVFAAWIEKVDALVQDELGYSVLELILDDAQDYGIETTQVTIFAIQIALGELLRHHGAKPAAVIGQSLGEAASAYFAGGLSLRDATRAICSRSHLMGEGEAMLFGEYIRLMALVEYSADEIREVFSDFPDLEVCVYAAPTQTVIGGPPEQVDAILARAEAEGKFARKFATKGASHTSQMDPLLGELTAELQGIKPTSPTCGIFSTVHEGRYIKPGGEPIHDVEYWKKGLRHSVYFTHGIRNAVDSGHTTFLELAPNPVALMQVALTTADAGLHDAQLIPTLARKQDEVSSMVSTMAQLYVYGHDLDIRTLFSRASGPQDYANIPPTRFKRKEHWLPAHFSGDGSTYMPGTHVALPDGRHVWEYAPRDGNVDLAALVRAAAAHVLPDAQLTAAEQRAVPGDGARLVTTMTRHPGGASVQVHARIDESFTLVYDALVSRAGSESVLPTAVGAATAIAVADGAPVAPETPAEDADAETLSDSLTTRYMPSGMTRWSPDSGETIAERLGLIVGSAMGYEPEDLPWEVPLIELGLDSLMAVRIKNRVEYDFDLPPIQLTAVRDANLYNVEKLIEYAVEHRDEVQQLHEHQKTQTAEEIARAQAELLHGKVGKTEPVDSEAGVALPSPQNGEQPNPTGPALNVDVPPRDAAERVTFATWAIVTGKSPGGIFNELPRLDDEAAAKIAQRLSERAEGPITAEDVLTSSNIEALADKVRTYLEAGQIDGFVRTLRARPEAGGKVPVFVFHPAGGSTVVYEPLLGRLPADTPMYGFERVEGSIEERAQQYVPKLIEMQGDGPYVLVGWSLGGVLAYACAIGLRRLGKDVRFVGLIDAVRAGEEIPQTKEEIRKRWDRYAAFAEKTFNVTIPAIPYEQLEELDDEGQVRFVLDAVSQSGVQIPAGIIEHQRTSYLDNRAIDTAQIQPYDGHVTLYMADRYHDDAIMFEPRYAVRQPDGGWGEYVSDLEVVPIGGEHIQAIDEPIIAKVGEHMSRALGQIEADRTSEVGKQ
UniProt Q4DA54, 1-478: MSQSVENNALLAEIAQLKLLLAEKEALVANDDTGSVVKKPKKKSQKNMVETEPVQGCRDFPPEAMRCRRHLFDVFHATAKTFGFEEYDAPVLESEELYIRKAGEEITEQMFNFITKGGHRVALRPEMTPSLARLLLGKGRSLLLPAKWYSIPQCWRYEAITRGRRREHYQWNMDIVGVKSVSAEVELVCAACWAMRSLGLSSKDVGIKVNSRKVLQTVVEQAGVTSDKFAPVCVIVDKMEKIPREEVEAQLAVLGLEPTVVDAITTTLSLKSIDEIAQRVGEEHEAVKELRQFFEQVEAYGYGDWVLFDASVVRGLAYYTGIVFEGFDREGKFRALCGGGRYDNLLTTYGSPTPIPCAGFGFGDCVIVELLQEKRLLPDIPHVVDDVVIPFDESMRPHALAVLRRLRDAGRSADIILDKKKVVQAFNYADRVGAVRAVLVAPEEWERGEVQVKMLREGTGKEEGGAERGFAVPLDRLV

A: 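Enzyme assay of tryptophanyl-tRNA synthetase; the read-out is not stated. Target: Tryptophan-tRNA ligase, Mycobacterium tuberculosis (UniProt P9WFT3). Tested at 10 µM. Direction is not recorded; retested compounds ran higher, which suggests that high means inhibition. Of about 65,000 compounds tested this way, about 64 (0.098%) reached 50% or more in at least one test.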
B: 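Cell assay of Leishmania donovani living inside macrophages; the read-out is not stated. Tested at 30 µM. Direction is inferred from retests: higher values go with stronger inhibition. Of about 69,000 compounds tested this way, about 1,000 (1.5%) reached 50% or more in at least one test.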
C: 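Enzyme assay of the thioesterase domain of polyketide synthase 13; the read-out is not stated. Target: Polyketide synthase Pks13, Mycobacterium tuberculosis (UniProt I6X8D2). Compounds at 30 µM. The record gives no direction; the compounds picked for IC50 retests had high values, so higher reads as stronger inhibition. Of about 67,000 compounds tested this way, about 300 (0.46%) reached 50% or more in at least one test.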
D: 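Enzyme assay of histidyl-tRNA synthetase; the read-out is not stated. Target: Histidine-tRNA ligase, Trypanosoma cruzi CL Brener (UniProt Q4DA54). Tested at 30 µM. Direction is inferred from retests: higher values go with stronger inhibition. Size under these conditions: about 69,000 compounds, about 31 of them at 50% or above in at least one test.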

Each number is a percent effect as filed. The record does not define 0% and 100%; most values in the screen are far below 50% and negative numbers occur (in some assays of this library far below -100). Compounds were drawn at random from those tested, without regard to their results. Two or more numbers in one place are separate tests of the same structure; such repeats can differ widely. A dash means the value is not listed here; it may have been measured.

| # | SMILES | A | B | C | D |
|---|---|---|---|---|---|
| 1 | `Cc1cc(N2CCC3(CCCN(CCO)C3=O)C2)nc2ccccc12` (stereo not drawn) | 5.05 | -63.44 | 8.915 | 3.483 |
| 2 | `Cc1ccc(NC2CCN(C(=O)c3ccc(F)cc3Cl)CC2)nn1` | -5.495 | 31.72 | -16.2 | 4.507 |
| 3 | `CCN1CCC(c2nc3ccc(NC4CCC4)cn3n2)CC1.O=C(O)C(F)(F)F` | - | 53.52 | - | - |
| 4 | `CCn1ncc(Br)c1CN(C)S(=O)(=O)c1ccc(C)cc1` | 1.25 | 19.35 | -21.25 | 0 |
| 5 | `CCOC(=O)N1CCN(C(=O)c2cc(-c3ccc(C)cc3)on2)CC1` | 2.007 | 67.95 | 7.699 | 1.754 |
| 6 | `Cc1nccc(-c2cccc(NCC(=O)N3CCOC(C)C3)c2)n1` (stereo not drawn) | -5.48 | 14.66 | -1.832 | 6.358 |
| 7 | `CN(Cc1nc(C2CC2)no1)C(=O)c1cccc(CC2CCNCC2)c1` | 0.3734 | 15.3 | 3.095 | 3.529 |
| 8 | `Fc1cccc(C(NCc2ncc[nH]2)c2ccccn2)c1` (stereo not drawn) | 1.432 | -15.85 | -6.233 | 5.357 |
| 9 | `CC(C)Nc1cc(-c2c[nH]nc2C2CCN(C(=O)C3CC3)C2)ccn1` (stereo not drawn) | -5.409 | 49.22 | 9.886 | 7.576 |
| 10 | `CCCn1ncc(C(=O)N2CCN([C@H]3CCCC[C@@H]3O)CC2)c1C` | -0.3687 | 26.71 | 18.05 | 6.557 |
| 11 | `O=C(CCC(F)(F)F)N1CCCC(CO)(CC2CC2)C1` (stereo not drawn) | 7.57 | 3.995 | -17.1 | 7.179 |
| 12 | `Cc1occc1C(=O)N1CCC2(CCCN(Cc3cccs3)C2)C1` (stereo not drawn) | 3.133 | - | -38.72 | 8.911 |
| 13 | `CCn1ncc2c1C(COC)CN(Cc1cnn(C)c1)C2` (stereo not drawn) | 0.2722 | 5.053 | -7.143 | -0.9346 |
| 14 | `CCOC(C)c1nccn1CCC(=O)Nc1cc(C)on1` (stereo not drawn) | -0.4045 | -9.667 | -5.978 | -7.772 |
| 15 | `CCOC1COC2(CCN(CC3CCOCC3)CC2)C1` (stereo not drawn) | - | - | - | -4.523 |
| 16 | `CC(C)c1ccc(C#N)c(N2CC(C)(C)[C@@](C)(O)C2)n1` | -5.676 | 3.251 | -38.31 | 0.5525 |
| 17 | `Nc1cc2c(nn1)CCN(C(=O)c1cccnc1Oc1ccccc1)C2` | 3.008 | -0.8418 | -6.622 | 13.79 |
| 18 | `CCCc1nc(N2CCCN(c3ncccn3)CC2)c2cnn(C)c2n1` | -1.771 | -3.523 | -8.93 | 2.4 |
| 19 | `Cc1ccnc(NCC2(N(C)C)CCOCC2)n1` | -2.708 | 20.57 | -14.46 | 3.191 |
| 20 | `CCc1noc(CN(C)Cc2cc3ccc(Cl)cc3[nH]c2=O)n1` | 1.288 | -2.656 | -45.84 | 10.4 |
| 21 | `CN(C)C(=O)CN1CCOCC2(CCN(CC3CCOCC3)CC2)C1` | 0.2114 | - | -38.36 | 3.226 |
| 22 | `CC(C)Cc1cc(CNc2nc(-c3cccnc3)nc3c2CNC3)no1` | -1.135 | 9.598 | - | 2.597 |
| 23 | `O=C(C1CCOCC1)N1C[C@H](OCc2cccnc2)[C@H]2COC[C@H]21` | -1.906 | - | -10.62 | 0 |
| 24 | `c1ccc(C[C@H]2CN(Cc3nccs3)CC[C@@H]2OCC2CC2)cc1` | -3.539 | - | -12.49 | 5.911 |
| 25 | `CC(C)N(C)Cc1cnc2n1CCN(C(=O)NC1CCCC1)C2.O=C(O)C(F)(F)F` | - | 2.217 | - | - |
| 26 | `Cc1cc(-c2cnc(NC3CC3)nc2-c2ccco2)on1` | - | 7.221 | 25.56 | 3.191 |
| 27 | `CC(C)[C@H]1CN(CCS(C)(=O)=O)C[C@@H]1NC(=O)c1ccc(=O)[nH]c1` | 2.004 | -0.6531 | -22.23 | 4.167 |
| 28 | `CC(C)c1cnc(CN(C)C2CCN(CCCc3cnn(C)c3)C2)o1` (stereo not drawn) | 7.688 | 13.96 | -13.78 | 5.65 |
| 29 | `COC(=O)c1ccc(CN(C(C)C)C(C)C)o1` | -1.727 | - | 1.627 | 1.235 |
| 30 | `Cc1cccc(-c2nnn3c2COC(CNCc2nccs2)C3)c1.O=C(O)C(F)(F)F` (stereo not drawn) | - | 18.85 | - | - |
| 31 | `O=C(NCCCn1ccnc1)C1CCC(=O)N1Cc1cccs1` (stereo not drawn) | -1.713 | 13.8 | -43.76 | 8.247 |
| 32 | `CN(CCC(=O)N1CCc2sccc2C1)Cc1ccc2c(c1)OCCO2` | -7.268 | 3.119 | -16.94 | 5.187 |
| 33 | `O=C1C(Sc2cnn[nH]2)CCCN1c1ccccc1F` (stereo not drawn) | 6.357 | -32.34 | -117.9 | 1.911 |
| 34 | `CC(C)CC(C#N)NC(=O)CCNC(=O)C(C)(C)C` (stereo not drawn) | -3.185 | 1.192 | -20.93 | 1.064 |
| 35 | `COCC1Cn2nnc(-c3cnn(C)c3)c2CN1Cc1ccsc1.O=C(O)C(F)(F)F` (stereo not drawn) | - | 13.49 | - | - |
| 36 | `Cc1cnn(CC2CC2)c1NC(=O)c1cccnc1O` | -2.428 | -2.804 | -19.43 | -1.031 |
| 37 | `COc1ccc(CN2CCN(CC3CC3)[C@@H]3CS(=O)(=O)C[C@@H]32)cc1O` | 8.488 | - | -33.76 | 3.352 |
| 38 | `CC1=C(C(=O)N(C)Cc2n[nH]c3c2CCCCC3)C(C)NC(=O)N1` (stereo not drawn) | 3.742 | -9.725 | 39.51 | 11.11 |
| 39 | `CCC(C(=O)NCCc1nc(C)cc(C(F)(F)F)n1)n1cccn1` (stereo not drawn) | 2.877 | 69.8 | 13.56 | 6.03 |
| 40 | `Cc1cc(C[C@@H]2CCC[C@H]2NCc2cc(F)ccc2F)on1` | - | - | 11.46 | 5.495 |
| 41 | `Cc1nnc(NC(=O)NCc2ccnc(N(C)C)c2)s1` | -3.691 | 26.25 | -4.008 | 8.832 |
| 42 | `[H][C@@]12OCCC[C@]1([H])N(C(N)=O)C[C@@H]2NC(=O)c1cscn1` | - | 33.99 | - | - |
| 43 | `[H][C@@]12CN(C(=O)c3ccsc3)C[C@]1([H])C(=O)N(Cc1ccc(OC)cc1)C2` | - | 9.813 | - | - |
| 44 | `O=C(c1cnc2c(c1)CCC2)N1CCCC(CO)(CC2CC2)C1` (stereo not drawn) | 1.525 | 12.52 | 3.899 | -28.48 |
| 45 | `CCCC(=O)N1CCC2(CC1)OCCO2` | -0.1971 | 5.629 | -15.36 | 1.327 |
| 46 | `c1ccc(COC2CCN(Cc3cc4n(n3)CCCNC4)CC2)nc1` | 2.81 | 11.76 and 16.76 | -21.74 | 1.205 |
| 47 | `Cc1noc(C)c1CN1CC[C@H]2OCC[C@@]2(C(=O)N(C)C)C1` | -6.494 | - | 1.902 | 9.244 |
| 48 | `CN(C)C(CNS(=O)(=O)c1cc(F)ccc1F)c1cccn1C` (stereo not drawn) | 0.1564 | 19.07 | -4.132 | 3.061 |
| 49 | `CCOC(C)c1nc(CN2CCN(CC(F)F)CC2)cs1` (stereo not drawn) | -3.054 | 36.33 | -1.273 | 4.124 |
| 50 | `CC(NC(=O)C1CCCC1)c1nncn1C(C)C` (stereo not drawn) | 10.76 | 53.36 | - | -1.571 |
| 51 | `CCNc1nc2c(s1)C(=O)CN(C(=O)NCCc1ccccc1)C2` | -2.956 | -36.01 | 4.795 | -0.3774 |
| 52 | `CCOC(=O)N1CCN(CC(=O)Nc2ccc(F)cc2Cl)CC1` | 0.8081 | 14.33 | - | -43.88 |
| 53 | `N#CC1(NC(=O)c2ccc(-c3nc(C4CC4)n[nH]3)cc2)CC1` | 1.336 | 32.39 | -9.298 | 4.327 |
| 54 | `O=C(CCc1ccc(F)cc1)NCc1ccnc(NC2CC2)c1` | -0.9356 | -1.659 | - | 6.145 |
| 55 | `Cc1cnc(CN(C)Cc2cc3c(cc2OC(F)F)OCO3)o1` | 4.51 | 38 and 16.81 | -7.976 | 8.434 |
| 56 | `O=C(O)C(F)(F)F.c1ccc(CN2CCc3c(CNc4nccs4)n[nH]c3C2)nc1` | - | 21.08 | - | - |
| 57 | `Cc1ccc(-c2ccsc2C(=O)NC2CCS(=O)(=O)C2)cc1` (stereo not drawn) | -0.831 | 23.69 | -18.23 | 5.291 |
| 58 | `CC(C)N1CCC2(CCCNC2)C1=O` (stereo not drawn) | -4.942 | - | -16.39 | 0.9709 |